In paper PMC4140012:
Results are given in words; binding and its absence hold for the method and conditions named. In cells and extracts the contact can be indirect. These calls come from enrichment with a bait or labelling near it, and not all partners need be listed.

Chains of the proteins cited; added tags and fusions are not shown. Lines headed by an entry give the natural chain unless they say otherwise; changes in a name come on top.
UniProt Q8IQ27: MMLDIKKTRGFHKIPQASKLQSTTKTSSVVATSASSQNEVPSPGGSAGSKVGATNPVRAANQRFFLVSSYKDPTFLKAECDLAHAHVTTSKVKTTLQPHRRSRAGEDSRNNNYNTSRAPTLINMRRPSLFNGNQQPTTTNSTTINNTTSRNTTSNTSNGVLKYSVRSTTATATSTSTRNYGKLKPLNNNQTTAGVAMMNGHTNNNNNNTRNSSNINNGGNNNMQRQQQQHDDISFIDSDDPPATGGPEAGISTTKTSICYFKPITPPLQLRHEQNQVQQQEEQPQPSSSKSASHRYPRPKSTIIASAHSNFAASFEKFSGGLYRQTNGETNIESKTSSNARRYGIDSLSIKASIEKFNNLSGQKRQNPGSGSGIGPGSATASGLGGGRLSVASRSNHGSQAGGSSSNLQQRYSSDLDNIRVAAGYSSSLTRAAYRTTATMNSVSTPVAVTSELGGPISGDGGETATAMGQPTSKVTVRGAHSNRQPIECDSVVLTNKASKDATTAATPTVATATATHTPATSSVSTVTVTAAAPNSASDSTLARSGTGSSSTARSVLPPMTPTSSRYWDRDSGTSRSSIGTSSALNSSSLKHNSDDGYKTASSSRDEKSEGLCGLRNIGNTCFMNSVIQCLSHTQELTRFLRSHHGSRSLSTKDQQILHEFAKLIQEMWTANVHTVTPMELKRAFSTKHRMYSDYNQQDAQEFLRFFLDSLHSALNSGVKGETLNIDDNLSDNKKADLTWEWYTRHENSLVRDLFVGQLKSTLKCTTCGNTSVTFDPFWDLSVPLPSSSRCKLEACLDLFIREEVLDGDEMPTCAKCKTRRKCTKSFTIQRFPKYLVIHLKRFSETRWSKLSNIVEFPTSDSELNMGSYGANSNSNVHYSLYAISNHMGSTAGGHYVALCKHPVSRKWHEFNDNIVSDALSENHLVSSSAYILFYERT
UniProt O18413: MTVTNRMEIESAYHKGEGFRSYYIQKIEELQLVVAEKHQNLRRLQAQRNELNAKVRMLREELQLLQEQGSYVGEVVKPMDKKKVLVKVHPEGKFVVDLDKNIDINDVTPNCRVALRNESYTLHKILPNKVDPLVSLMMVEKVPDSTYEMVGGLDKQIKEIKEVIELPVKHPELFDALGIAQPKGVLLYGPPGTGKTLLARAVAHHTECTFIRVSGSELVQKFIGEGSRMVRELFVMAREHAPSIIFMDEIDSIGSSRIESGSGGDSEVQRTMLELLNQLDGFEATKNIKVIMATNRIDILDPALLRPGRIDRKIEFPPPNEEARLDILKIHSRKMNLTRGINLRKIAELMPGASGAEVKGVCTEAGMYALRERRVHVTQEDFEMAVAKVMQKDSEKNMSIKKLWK

Molecular target: GST-tagged full length USP2 (Drosophila) (UniProt Q8IQ27)
Test: affinity purification with mass spectrometry; GST or GST-USP2 as baits with S2 cell lysate; eluates analysed by nano-LC-MS/MS; only the target purified

proteasomal subunit 8 (Pros45) (from UniProt O18413 1-405)
binding: binds
